Assay [1] deals with T1, human butyrylcholinesterase (hBChE) (Homo sapiens, UniProt P06276).
T1 construct: hBChE derived from purified human plasma; from tissue; host or cells: human plasma
As to the kind of experiment: Progressive inhibition of hBChE by organophosphorus pesticides (Ellman method). It is filed as biochemical.

By UniProt entry, the sequences of proteins in these tests, tags left out. Residues count along the entry.
UniProt P06276, 29-602: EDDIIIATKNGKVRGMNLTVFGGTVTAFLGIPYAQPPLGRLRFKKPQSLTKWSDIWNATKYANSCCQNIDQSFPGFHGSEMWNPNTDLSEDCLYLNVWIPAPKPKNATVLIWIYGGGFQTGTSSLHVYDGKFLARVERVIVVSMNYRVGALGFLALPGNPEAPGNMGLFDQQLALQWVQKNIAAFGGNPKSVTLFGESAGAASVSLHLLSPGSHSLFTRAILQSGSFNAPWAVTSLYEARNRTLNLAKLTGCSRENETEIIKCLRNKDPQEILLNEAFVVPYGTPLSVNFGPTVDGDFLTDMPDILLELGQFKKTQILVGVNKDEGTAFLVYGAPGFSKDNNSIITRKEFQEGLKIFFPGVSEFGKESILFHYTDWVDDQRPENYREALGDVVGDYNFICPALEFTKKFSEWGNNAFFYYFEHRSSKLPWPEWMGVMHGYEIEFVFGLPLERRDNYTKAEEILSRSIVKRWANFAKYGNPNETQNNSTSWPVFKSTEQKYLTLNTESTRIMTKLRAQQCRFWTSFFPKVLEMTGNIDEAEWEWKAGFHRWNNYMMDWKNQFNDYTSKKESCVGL
UniProt P22303, 32-614: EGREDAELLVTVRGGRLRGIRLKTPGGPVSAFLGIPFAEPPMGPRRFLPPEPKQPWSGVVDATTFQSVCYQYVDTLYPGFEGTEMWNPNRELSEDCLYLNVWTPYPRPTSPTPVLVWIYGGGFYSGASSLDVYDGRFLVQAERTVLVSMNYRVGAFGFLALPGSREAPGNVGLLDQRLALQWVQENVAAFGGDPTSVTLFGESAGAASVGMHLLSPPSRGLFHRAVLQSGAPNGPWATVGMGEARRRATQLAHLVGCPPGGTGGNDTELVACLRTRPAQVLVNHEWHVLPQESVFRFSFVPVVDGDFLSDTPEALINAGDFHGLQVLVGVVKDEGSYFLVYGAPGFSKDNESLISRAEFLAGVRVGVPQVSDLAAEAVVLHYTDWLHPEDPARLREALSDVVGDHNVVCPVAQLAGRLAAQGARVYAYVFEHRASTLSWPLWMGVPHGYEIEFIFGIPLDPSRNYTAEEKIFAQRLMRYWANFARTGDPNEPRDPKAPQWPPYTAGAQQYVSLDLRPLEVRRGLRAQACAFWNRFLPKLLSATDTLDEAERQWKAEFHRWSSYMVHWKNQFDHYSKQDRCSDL

In assay [2] the target is T2, human acetylcholinesterase (hAChE) (Homo sapiens, UniProt P22303).
T2 construct: made in house
As to the kind of experiment: Progressive inhibition of hAChE by organophosphorus pesticides (Ellman method). It is filed as biochemical.

Structures are written as SMILES.

For the compound `CCOP(=O)(NC(C)C)Oc1ccc(SC)c(C)c1` (centres unmarked) [Fenamiphos, fenamiphos], the Ki was determined as 4.38 ± 1.21 µM in assay [1] and 52.1 ± 6.19 µM in assay [2].

The record behind these values is PMC8563940 (Scientific Reports, 2021).
